Experimental data taken from paper doi:10.1101/2023.09.01.555853.
These are yes or no findings as the source states them, for the method shown. Binding seen in cells or lysates may run through a third protein. Some binding calls cover weakened binding; strength is not graded here.

Protein sequences, listed by entry. Tags and fused reporters are not part of them.
UniProt B0LPN4: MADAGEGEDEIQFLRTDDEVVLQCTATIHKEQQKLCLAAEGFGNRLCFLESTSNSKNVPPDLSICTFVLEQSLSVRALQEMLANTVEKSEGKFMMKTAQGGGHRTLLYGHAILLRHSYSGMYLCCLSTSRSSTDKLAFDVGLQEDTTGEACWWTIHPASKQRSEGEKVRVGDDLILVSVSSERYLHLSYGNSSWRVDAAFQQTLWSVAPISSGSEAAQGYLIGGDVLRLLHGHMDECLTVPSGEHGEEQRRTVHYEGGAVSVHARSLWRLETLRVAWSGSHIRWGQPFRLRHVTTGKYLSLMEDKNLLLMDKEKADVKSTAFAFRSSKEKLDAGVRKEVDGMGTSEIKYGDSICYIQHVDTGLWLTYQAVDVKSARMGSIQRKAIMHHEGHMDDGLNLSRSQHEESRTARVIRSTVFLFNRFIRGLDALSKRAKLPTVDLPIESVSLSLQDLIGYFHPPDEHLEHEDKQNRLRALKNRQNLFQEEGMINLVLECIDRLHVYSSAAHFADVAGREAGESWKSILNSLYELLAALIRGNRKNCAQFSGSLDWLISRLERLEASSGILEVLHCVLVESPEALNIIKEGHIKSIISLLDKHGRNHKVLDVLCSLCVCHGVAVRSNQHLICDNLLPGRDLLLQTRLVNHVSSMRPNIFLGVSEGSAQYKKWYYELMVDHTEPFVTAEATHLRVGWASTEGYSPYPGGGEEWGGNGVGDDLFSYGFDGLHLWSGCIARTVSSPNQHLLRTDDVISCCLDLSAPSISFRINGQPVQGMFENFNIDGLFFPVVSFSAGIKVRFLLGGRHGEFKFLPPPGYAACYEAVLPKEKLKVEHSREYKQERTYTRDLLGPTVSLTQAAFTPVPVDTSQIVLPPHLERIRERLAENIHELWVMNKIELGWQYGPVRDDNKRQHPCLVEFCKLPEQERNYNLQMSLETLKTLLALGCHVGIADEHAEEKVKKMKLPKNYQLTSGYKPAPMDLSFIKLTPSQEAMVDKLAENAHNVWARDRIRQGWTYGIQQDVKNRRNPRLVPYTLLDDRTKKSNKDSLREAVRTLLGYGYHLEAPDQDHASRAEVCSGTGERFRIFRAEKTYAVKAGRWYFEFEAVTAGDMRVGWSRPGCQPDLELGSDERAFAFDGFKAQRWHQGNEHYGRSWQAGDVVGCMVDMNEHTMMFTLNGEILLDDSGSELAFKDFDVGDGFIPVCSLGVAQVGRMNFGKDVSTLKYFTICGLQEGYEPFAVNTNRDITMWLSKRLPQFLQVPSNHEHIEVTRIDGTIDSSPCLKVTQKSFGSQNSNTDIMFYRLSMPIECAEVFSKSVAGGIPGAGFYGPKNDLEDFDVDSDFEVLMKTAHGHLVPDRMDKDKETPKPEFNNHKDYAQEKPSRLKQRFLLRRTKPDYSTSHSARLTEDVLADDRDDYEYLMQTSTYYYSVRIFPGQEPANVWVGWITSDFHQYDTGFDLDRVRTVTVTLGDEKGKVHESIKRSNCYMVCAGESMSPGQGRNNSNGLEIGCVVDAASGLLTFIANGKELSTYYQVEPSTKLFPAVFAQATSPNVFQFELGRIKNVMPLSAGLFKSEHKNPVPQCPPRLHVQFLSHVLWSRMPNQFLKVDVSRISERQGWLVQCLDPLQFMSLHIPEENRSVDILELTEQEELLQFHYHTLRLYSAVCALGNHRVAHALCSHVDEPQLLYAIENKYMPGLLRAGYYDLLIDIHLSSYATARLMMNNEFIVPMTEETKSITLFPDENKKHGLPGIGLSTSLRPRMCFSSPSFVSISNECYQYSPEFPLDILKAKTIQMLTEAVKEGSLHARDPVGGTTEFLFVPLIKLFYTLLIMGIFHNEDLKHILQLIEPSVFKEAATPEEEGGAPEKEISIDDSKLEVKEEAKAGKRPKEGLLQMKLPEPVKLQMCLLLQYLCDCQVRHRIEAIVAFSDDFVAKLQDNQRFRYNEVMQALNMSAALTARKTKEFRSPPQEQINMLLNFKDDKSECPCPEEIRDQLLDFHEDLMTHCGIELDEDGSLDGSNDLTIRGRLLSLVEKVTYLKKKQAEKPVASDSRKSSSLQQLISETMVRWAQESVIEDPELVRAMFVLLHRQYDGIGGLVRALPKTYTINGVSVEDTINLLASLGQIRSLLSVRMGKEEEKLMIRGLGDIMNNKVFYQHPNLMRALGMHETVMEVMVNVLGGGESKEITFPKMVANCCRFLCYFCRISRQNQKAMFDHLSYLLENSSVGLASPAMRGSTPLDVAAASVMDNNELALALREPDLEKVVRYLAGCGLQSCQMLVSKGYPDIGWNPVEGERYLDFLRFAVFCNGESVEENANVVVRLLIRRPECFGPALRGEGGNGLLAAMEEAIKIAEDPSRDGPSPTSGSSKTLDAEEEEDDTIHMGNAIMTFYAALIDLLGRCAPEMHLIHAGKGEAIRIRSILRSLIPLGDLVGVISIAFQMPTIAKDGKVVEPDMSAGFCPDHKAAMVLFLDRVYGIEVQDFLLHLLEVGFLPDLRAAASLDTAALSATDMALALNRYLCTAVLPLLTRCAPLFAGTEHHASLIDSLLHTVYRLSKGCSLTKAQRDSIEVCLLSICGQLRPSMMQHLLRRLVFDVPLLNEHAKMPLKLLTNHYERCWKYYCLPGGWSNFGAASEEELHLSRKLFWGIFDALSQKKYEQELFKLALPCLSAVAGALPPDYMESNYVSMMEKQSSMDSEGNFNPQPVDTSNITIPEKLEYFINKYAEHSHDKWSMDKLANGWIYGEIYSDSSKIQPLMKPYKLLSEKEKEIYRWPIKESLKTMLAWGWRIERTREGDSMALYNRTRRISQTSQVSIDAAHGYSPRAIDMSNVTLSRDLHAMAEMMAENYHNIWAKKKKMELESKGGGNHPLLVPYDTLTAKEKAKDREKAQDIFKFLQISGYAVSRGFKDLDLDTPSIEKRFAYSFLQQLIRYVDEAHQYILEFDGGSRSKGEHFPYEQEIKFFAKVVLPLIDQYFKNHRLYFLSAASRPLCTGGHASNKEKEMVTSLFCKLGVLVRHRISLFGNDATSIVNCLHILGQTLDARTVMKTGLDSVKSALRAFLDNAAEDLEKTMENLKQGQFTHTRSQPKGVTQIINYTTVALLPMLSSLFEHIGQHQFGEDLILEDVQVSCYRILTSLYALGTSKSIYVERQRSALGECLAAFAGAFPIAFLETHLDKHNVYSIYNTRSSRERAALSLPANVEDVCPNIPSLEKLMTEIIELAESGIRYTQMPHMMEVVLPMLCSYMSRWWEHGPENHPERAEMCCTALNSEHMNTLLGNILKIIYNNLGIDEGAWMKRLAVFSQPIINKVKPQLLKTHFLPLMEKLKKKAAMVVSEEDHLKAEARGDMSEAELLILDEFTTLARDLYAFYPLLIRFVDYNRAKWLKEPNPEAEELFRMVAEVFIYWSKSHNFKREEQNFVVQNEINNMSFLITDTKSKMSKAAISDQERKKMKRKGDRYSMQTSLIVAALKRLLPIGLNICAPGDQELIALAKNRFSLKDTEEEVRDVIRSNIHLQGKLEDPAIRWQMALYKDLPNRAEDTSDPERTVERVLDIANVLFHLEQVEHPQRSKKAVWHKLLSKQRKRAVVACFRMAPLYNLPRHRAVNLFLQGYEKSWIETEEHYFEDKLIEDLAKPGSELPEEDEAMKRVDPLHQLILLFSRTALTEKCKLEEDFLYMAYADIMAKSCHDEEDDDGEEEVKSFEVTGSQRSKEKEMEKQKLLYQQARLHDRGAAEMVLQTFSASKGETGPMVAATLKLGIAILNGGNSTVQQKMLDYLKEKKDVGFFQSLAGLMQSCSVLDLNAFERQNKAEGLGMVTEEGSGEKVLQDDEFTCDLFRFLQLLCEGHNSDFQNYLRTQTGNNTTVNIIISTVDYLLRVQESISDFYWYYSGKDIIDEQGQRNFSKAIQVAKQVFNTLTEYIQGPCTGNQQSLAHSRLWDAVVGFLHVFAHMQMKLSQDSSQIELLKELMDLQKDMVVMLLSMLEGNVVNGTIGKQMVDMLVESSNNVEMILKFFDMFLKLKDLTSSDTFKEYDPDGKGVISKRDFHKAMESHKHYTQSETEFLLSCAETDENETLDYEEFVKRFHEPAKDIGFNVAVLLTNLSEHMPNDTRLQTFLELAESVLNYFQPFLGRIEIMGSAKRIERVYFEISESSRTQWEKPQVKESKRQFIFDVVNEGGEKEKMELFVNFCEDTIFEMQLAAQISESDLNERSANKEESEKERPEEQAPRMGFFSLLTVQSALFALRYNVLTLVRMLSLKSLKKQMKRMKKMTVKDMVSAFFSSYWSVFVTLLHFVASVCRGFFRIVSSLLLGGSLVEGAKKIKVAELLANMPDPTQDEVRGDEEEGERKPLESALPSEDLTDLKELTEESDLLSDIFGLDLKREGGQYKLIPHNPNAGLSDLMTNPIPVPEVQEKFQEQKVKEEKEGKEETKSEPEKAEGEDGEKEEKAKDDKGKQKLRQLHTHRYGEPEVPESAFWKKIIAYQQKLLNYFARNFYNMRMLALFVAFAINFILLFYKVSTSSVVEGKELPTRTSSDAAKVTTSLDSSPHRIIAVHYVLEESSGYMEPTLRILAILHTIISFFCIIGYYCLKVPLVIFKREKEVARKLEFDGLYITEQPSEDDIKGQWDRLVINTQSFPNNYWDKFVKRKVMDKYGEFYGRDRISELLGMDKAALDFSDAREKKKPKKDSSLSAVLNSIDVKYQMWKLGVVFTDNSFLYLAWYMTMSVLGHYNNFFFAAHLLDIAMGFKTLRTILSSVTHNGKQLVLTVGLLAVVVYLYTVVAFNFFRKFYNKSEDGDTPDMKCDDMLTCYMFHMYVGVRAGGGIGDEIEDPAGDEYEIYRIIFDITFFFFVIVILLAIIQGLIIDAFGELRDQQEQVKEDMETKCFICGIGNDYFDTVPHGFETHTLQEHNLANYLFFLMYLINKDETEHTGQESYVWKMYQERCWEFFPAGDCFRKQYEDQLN
UniProt P23297: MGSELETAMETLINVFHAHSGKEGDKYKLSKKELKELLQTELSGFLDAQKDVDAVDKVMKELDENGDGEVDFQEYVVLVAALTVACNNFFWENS

Target: ryanodine receptor 2 (rat (endogenous in neonatal rat cardiomyocytes)) (UniProt B0LPN4)
Experiment: co-IP

In the case of “wild-type human S100A1 (from UniProt P23297 1-94)”, the binding is reported as “binds”.
